± gives the standard deviation of the averaged measurements. The entries are a selection whose mix differs from that of the whole data set. Most values lie at the level of the controls, where differences are scatter.

Amino acid sequences for entries named in this document (tags omitted). A change or cut given only in a name is not applied to a line headed by its entry.
UniProt Q9H3K2: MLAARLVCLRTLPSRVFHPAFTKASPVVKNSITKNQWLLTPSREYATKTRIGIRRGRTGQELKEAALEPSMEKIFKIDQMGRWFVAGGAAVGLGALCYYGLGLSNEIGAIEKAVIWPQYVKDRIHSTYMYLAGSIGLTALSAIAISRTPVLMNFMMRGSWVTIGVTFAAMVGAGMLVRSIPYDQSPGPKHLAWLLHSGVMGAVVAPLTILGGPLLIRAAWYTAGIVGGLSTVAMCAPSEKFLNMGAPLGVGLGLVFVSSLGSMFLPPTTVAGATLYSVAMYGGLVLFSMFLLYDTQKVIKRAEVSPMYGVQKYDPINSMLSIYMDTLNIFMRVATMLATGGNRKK
UniProt Q9HCM1: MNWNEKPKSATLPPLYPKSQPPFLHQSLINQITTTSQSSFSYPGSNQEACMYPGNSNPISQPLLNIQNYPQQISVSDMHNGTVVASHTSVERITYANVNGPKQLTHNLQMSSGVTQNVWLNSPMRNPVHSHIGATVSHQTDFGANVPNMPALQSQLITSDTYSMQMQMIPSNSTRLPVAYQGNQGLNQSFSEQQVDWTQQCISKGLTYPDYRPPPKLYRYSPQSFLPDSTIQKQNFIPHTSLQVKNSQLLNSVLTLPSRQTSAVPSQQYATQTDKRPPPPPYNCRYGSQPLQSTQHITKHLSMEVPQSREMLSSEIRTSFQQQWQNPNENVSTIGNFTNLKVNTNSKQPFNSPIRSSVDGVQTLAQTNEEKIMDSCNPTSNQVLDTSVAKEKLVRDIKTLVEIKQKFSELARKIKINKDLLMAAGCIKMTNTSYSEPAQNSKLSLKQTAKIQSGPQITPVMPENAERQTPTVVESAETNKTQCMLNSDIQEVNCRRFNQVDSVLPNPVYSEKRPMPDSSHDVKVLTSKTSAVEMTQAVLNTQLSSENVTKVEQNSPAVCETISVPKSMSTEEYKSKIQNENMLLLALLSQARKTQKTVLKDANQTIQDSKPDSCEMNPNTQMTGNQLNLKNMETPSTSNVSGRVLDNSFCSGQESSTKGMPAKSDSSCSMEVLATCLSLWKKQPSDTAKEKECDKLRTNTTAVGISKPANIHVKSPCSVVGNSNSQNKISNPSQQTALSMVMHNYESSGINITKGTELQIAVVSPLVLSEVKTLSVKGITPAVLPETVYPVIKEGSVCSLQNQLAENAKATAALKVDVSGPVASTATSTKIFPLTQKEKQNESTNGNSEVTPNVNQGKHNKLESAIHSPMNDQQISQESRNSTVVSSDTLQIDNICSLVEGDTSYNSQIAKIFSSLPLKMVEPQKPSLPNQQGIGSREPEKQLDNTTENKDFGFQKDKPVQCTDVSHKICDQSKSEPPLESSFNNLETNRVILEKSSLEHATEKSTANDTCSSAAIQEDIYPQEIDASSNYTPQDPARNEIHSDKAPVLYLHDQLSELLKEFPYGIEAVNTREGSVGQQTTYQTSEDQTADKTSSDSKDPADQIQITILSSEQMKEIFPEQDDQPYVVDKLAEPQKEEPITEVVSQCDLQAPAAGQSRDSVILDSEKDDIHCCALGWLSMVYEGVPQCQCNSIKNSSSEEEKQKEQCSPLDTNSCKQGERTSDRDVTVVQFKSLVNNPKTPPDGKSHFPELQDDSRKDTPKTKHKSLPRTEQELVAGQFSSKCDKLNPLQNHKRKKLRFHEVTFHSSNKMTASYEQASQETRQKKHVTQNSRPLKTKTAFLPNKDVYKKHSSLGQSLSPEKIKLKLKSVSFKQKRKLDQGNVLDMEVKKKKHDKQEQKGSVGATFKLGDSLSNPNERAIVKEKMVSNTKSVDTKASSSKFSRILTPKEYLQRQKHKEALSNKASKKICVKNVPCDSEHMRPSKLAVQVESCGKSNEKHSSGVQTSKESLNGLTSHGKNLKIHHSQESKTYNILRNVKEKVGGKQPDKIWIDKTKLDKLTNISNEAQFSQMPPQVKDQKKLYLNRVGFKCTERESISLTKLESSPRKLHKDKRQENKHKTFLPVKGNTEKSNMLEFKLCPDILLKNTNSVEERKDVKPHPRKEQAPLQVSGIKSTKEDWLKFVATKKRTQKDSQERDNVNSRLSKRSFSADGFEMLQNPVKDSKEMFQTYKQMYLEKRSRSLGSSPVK
UniProt Q9H7D7: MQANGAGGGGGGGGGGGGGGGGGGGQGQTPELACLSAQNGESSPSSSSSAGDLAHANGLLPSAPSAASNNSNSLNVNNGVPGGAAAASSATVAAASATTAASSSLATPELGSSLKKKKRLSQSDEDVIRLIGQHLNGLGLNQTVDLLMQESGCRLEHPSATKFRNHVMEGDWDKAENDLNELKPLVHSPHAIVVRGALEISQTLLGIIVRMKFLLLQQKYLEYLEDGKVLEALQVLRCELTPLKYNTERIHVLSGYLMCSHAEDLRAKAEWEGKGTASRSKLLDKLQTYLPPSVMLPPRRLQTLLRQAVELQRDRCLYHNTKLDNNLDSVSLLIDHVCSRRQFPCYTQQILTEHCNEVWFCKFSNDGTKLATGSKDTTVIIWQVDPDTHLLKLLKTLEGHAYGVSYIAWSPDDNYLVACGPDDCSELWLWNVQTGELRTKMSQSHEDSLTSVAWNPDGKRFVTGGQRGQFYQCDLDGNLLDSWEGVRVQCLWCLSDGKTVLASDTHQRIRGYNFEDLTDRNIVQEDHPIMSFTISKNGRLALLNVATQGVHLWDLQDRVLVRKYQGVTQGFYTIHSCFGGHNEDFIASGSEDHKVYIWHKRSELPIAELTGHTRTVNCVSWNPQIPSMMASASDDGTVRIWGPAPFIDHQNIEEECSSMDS
UniProt Q9H079: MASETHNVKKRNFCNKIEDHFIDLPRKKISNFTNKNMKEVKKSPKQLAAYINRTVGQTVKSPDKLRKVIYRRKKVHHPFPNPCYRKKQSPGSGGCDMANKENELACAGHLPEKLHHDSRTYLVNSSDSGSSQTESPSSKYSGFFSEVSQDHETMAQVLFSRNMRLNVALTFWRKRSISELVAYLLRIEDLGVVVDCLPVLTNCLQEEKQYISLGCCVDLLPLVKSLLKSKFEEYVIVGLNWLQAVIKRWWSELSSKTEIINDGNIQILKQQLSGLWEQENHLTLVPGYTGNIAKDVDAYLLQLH
UniProt Q9H974: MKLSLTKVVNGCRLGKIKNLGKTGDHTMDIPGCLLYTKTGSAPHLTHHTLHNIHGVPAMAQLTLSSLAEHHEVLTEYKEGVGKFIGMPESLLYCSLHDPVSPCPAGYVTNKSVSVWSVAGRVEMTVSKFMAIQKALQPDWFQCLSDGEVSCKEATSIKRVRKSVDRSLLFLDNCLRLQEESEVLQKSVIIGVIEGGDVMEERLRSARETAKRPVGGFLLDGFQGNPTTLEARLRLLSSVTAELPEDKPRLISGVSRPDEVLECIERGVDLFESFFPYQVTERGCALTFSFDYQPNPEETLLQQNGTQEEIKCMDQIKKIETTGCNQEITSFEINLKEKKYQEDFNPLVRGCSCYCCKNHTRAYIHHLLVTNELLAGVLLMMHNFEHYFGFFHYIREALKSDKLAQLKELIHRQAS
UniProt Q9H845: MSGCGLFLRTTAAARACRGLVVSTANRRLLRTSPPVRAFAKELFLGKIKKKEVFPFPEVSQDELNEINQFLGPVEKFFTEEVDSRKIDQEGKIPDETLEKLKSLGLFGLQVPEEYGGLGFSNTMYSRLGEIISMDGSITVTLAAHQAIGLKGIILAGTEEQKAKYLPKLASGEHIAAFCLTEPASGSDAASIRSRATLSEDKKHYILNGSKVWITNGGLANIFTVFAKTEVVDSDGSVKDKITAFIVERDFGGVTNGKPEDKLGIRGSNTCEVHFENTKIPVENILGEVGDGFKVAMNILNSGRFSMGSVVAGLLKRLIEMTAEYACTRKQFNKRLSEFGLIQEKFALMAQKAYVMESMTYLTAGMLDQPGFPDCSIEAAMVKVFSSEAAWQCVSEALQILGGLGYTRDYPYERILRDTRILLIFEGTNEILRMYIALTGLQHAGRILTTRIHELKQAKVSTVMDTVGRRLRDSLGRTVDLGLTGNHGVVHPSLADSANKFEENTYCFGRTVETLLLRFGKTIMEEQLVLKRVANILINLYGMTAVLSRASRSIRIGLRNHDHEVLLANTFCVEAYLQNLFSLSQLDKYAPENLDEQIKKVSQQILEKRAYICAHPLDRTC
UniProt Q9H3H1: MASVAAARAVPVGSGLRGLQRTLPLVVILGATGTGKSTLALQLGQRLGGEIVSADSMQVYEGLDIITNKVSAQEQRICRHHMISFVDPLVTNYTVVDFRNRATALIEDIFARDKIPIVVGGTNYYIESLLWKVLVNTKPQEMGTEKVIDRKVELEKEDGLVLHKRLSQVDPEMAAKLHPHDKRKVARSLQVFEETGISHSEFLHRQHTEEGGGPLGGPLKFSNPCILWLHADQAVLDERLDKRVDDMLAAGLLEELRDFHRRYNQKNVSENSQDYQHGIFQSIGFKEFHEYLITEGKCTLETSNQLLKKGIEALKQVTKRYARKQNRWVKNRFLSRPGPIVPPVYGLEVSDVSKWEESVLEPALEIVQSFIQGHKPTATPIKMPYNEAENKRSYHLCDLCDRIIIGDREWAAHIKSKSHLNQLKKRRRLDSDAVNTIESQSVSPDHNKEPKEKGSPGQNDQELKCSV
UniProt Q9H019: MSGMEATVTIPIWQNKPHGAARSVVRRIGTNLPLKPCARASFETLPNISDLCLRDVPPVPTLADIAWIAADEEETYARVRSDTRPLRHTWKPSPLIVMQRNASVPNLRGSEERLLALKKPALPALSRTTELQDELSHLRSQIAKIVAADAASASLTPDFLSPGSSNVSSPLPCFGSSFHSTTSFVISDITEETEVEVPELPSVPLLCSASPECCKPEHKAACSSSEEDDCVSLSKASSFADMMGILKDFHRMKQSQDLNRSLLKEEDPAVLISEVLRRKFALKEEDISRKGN
UniProt Q9BZE2: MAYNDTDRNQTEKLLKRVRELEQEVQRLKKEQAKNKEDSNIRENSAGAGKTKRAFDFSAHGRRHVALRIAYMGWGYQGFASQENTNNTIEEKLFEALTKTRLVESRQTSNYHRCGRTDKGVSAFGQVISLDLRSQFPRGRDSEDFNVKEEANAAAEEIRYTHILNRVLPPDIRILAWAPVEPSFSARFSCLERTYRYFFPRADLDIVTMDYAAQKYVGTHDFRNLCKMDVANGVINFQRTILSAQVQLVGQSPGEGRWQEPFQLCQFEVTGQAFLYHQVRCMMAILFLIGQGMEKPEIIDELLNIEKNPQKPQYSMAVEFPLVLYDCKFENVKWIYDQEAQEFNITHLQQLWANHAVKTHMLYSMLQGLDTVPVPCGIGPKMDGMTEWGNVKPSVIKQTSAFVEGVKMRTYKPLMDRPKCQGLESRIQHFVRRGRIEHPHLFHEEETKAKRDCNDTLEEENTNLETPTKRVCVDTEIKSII
UniProt Q9NPA3, whole entry: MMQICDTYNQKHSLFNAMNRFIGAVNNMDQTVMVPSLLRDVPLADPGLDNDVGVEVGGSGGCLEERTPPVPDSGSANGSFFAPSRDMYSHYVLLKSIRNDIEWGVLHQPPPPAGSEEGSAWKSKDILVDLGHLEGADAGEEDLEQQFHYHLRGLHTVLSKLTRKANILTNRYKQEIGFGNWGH
UniProt Q9BZI7: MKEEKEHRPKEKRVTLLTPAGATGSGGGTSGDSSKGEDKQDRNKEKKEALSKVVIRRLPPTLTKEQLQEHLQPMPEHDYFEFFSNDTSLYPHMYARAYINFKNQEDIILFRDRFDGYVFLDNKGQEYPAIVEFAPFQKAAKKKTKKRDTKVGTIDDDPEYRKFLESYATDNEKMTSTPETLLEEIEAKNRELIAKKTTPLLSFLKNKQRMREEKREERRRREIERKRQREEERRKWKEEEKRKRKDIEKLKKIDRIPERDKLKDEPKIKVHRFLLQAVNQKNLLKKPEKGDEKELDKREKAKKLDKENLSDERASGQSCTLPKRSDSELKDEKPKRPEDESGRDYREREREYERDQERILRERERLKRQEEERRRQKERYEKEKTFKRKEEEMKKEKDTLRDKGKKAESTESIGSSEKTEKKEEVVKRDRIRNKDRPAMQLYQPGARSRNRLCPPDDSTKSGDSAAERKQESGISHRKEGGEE
UniProt Q9H8M2, whole entry: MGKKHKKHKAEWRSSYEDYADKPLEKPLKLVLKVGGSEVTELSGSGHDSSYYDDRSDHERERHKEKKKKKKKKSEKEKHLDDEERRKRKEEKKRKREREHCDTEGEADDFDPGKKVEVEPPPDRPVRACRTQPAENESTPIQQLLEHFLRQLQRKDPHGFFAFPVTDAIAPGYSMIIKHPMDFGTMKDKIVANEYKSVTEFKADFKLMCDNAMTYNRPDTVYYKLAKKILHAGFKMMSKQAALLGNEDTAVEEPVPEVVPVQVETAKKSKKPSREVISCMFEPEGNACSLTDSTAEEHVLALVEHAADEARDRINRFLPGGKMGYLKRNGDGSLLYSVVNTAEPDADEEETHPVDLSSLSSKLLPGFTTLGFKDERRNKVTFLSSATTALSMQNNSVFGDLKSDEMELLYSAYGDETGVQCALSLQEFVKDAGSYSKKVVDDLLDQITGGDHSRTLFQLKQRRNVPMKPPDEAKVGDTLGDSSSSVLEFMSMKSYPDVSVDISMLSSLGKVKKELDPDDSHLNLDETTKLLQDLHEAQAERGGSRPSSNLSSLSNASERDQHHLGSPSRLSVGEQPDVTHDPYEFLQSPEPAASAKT

Compound in this experiment: Nc1ncnc2c1ncn2[C@@H]1O[C@H](COP(=O)(O)OP(=O)(O)NP(=O)(O)O)[C@@H](O)[C@H]1O [adenylyl imidodiphosphate]
As to the kind of experiment: NP40-soluble protein abundance relative to vehicle (solubility fold change) (ratio); higher = more soluble protein in presence of AMP-PNP. Put shortly:
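Values are fold changes against the detergent-processed vehicle, based on vsn-normalised intensities. Jurkat crude lysate was treated at eight concentrations from 0.1 to 10 mM (10 min at room temperature, then 3 min at 37 °C), solubilised with 0.8% NP40 and benzonase, ultracentrifuged and analysed by TMT-labelled LC-MS/MS over three independent experiments.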

With GHITM (UniProt Q9H3K2), the NP40-soluble protein abundance was 1 ± 0.037 (concentration: 0.1mM) and 0.986 ± 0.092 (concentration: 0.5mM).

Regarding UniProt Q9HCD6 and related entries, the NP40-soluble protein abundance is, setting by setting: (concentration: 0.1mM) 1.015 ± 0.0024; (concentration: 0.5mM) 1.006 ± 0.0072.

Take TOLLIP (UniProt Q9H0E2): the NP40-soluble protein abundance (concentration: 0.1mM) came out at 0.98 ± 0.016 and the NP40-soluble protein abundance (concentration: 0.5mM) stood at 0.9861 ± 0.0082.

For the target GRPEL1 (UniProt Q9HAV7), the NP40-soluble protein abundance by setting is: (concentration: 0.1mM) 0.957 ± 0.066; (concentration: 0.5mM) 0.973 ± 0.07.

With BOLA2 (UniProt Q9H3K6), the NP40-soluble protein abundance was found to be 0.984 ± 0.066 (concentration: 0.1mM) and 1.07 ± 0.11 (concentration: 0.5mM).

UniProt Q9HCN4 and related entries: the NP40-soluble protein abundance was 0.98 ± 0.031 (concentration: 0.1mM) and 0.9965 ± 0.0097 (concentration: 0.5mM).

C17orf75 (UniProt Q9HAS0): the NP40-soluble protein abundance (concentration: 0.1mM) amounted to 0.995 ± 0.019 and the NP40-soluble protein abundance (concentration: 0.5mM) amounted to 1.01 ± 0.042.

Regarding UniProt Q9HD26 and related entries, the NP40-soluble protein abundance is, setting by setting: (concentration: 0.1mM) 0.959 ± 0.014; (concentration: 0.5mM) 0.951 ± 0.024.

Consider UniProt Q9H5X1, for which the NP40-soluble protein abundance reads like this: (concentration: 0.1mM) 1.004 ± 0.01; (concentration: 0.5mM) 1 ± 0.032.

Turning to UniProt Q9H6U6 and related entries, the NP40-soluble protein abundance is 1 ± 0.039 (concentration: 0.1mM) and 0.983 ± 0.043 (concentration: 0.5mM).

Turning to KDM4C (UniProt Q9H3R0), the NP40-soluble protein abundance is, setting by setting: (concentration: 0.1mM) 1 ± 0.032; (concentration: 0.5mM) 1 ± 0.04.

For UniProt Q9H7Z3, the NP40-soluble protein abundance runs as follows: (concentration: 0.1mM) 1.01 ± 0.044; (concentration: 0.5mM) 1.02 ± 0.058.

On to UniProt Q9HCM1, for which the NP40-soluble protein abundance was 0.981 ± 0.01 (concentration: 0.1mM) and 0.981 ± 0.027 (concentration: 0.5mM).

Consider UniProt Q9H7D7 and related entries, for which the NP40-soluble protein abundance reads like this: (concentration: 0.1mM) 1.03 ± 0.014; (concentration: 0.5mM) 0.963 ± 0.034.

As for UniProt Q9GZY8-2, the NP40-soluble protein abundance is 1.025 ± 0.0075 (concentration: 0.1mM) and 0.9957 ± 0.0057 (concentration: 0.5mM).

Turning to PHAX (UniProt Q9H814), the NP40-soluble protein abundance (concentration: 0.1mM) is 0.994 ± 0.034 and the NP40-soluble protein abundance (concentration: 0.5mM) stood at 1.02 ± 0.053.

Take UniProt Q9H2G9 and related entries: the NP40-soluble protein abundance is 1.01 ± 0.025 (concentration: 0.1mM) and 0.952 ± 0.015 (concentration: 0.5mM).

In the case of UniProt Q9H6R7 and related entries, the NP40-soluble protein abundance is, setting by setting: (concentration: 0.1mM) 1.01 ± 0.042; (concentration: 0.5mM) 1 ± 0.034.

As for “UniProt Q9BZJ0-2|Q5JY65 and related entries”, the NP40-soluble protein abundance is, setting by setting: (concentration: 0.1mM) 0.99 ± 0.018; (concentration: 0.5mM) 1.03 ± 0.051.

Regarding KATNBL1 (UniProt Q9H079), the NP40-soluble protein abundance runs as follows: (concentration: 0.1mM) 0.993 ± 0.013; (concentration: 0.5mM) 1.01 ± 0.025.

In the case of UniProt Q9H974 and related entries, the NP40-soluble protein abundance by setting is: (concentration: 0.1mM) 1.02 ± 0.032; (concentration: 0.5mM) 0.997 ± 0.018.

With ACAD9 (UniProt Q9H845), the NP40-soluble protein abundance was determined as 0.9816 ± 0.0037 (concentration: 0.1mM) and 0.9943 ± 0.0032 (concentration: 0.5mM).

Turning to CWC22 (UniProt Q9HCG8), the NP40-soluble protein abundance amounted to 0.961 ± 0.024 (concentration: 0.1mM) and 1 ± 0.04 (concentration: 0.5mM).

Consider UniProt Q9H3H1 and related entries, for which the NP40-soluble protein abundance runs as follows: (concentration: 0.1mM) 1.04 ± 0.08; (concentration: 0.5mM) 1.1 ± 0.11.

On to “UniProt Q9H2F5-2|Q9H2F5 and related entries”, for which the NP40-soluble protein abundance (concentration: 0.1mM) was 0.999 ± 0.013 and the NP40-soluble protein abundance (concentration: 0.5mM) was 0.9449 ± 0.0068.

In the case of TM9SF3 (UniProt Q9HD45), the NP40-soluble protein abundance was determined as 1.02 ± 0.049 (concentration: 0.1mM) and 1.04 ± 0.095 (concentration: 0.5mM).

On to QRSL1 (UniProt Q9H0R6), for which the NP40-soluble protein abundance reads like this: (concentration: 0.1mM) 0.9459 ± 0.0077; (concentration: 0.5mM) 0.947 ± 0.01.

In the case of MRPL44 (UniProt Q9H9J2), the NP40-soluble protein abundance stood at 1.02 ± 0.034 (concentration: 0.1mM) and 1.01 ± 0.045 (concentration: 0.5mM).

UniProt Q9H9Y6 and related entries: the NP40-soluble protein abundance was determined as 1.03 ± 0.053 (concentration: 0.1mM) and 1 ± 0.086 (concentration: 0.5mM).

On to MOV10 (UniProt Q9HCE1), for which the NP40-soluble protein abundance reads like this: (concentration: 0.1mM) 1.05 ± 0.025; (concentration: 0.5mM) 1.02 ± 0.091.

As to UniProt Q9H078-2, the NP40-soluble protein abundance (concentration: 0.1mM) turned out to be 1.03 ± 0.036 and the NP40-soluble protein abundance (concentration: 0.5mM) was determined as 1.01 ± 0.014.

Take UniProt Q9C035 and related entries: the NP40-soluble protein abundance (concentration: 0.1mM) stood at 0.99 ± 0.041 and the NP40-soluble protein abundance (concentration: 0.5mM) was 0.983 ± 0.01.

In the case of UniProt Q9H0W8 and related entries, the NP40-soluble protein abundance runs as follows: (concentration: 0.1mM) 1.01 ± 0.013; (concentration: 0.5mM) 1 ± 0.046.

As to UniProt Q9H019 and related entries, the NP40-soluble protein abundance (concentration: 0.1mM) is 1.03 ± 0.05 and the NP40-soluble protein abundance (concentration: 0.5mM) turned out to be 0.992 ± 0.058.

As for PRKRIP1 (UniProt Q9H875), the NP40-soluble protein abundance (concentration: 0.1mM) was found to be 0.995 ± 0.021 and the NP40-soluble protein abundance (concentration: 0.5mM) turned out to be 1.04 ± 0.073.

Take UniProt Q9GZU8: the NP40-soluble protein abundance came to 0.954 ± 0.047 (concentration: 0.1mM) and 0.978 ± 0.07 (concentration: 0.5mM).

Turning to NOL11 (UniProt Q9H8H0), the NP40-soluble protein abundance came out at 1 ± 0.035 (concentration: 0.1mM) and 0.9851 ± 0.0043 (concentration: 0.5mM).

Take WDR54 (UniProt Q9H977): the NP40-soluble protein abundance is, setting by setting: (concentration: 0.1mM) 1.02 ± 0.027; (concentration: 0.5mM) 0.992 ± 0.022.

In the case of UniProt Q9NP80 and related entries, the NP40-soluble protein abundance by setting is: (concentration: 0.1mM) 0.9861 ± 0.0041; (concentration: 0.5mM) 0.9695 ± 0.0051.

Turning to UBE2T (UniProt Q9NPD8), the NP40-soluble protein abundance is, setting by setting: (concentration: 0.1mM) 1.01 ± 0.047; (concentration: 0.5mM) 1.01 ± 0.035.

In the case of PELI2 (UniProt Q9HAT8), the NP40-soluble protein abundance is, setting by setting: (concentration: 0.1mM) 0.988 ± 0.017; (concentration: 0.5mM) 0.993 ± 0.031.

Take UniProt Q9H7Z6: the NP40-soluble protein abundance turned out to be 1.03 ± 0.035 (concentration: 0.1mM) and 1.02 ± 0.043 (concentration: 0.5mM).

Regarding POLR3F (UniProt Q9H1D9), the NP40-soluble protein abundance was determined as 0.972 ± 0.015 (concentration: 0.1mM) and 0.981 ± 0.032 (concentration: 0.5mM).

Regarding PUS3 (UniProt Q9BZE2), the NP40-soluble protein abundance runs as follows: (concentration: 0.1mM) 1 ± 0.034; (concentration: 0.5mM) 0.99 ± 0.018.

As for UniProt Q9NPA3, the NP40-soluble protein abundance (concentration: 0.1mM) came to 1 ± 0.014 and the NP40-soluble protein abundance (concentration: 0.5mM) amounted to 0.997 ± 0.02.

As for UniProt Q9BZI7 and related entries, the NP40-soluble protein abundance by setting is: (concentration: 0.1mM) 1.02 ± 0.034; (concentration: 0.5mM) 1.01 ± 0.026.

Consider EML4 (UniProt Q9HC35), for which the NP40-soluble protein abundance is, setting by setting: (concentration: 0.1mM) 0.985 ± 0.025; (concentration: 0.5mM) 0.976 ± 0.018.

For the target TNKS1BP1 (UniProt Q9C0C2), the NP40-soluble protein abundance is, setting by setting: (concentration: 0.1mM) 0.9947 ± 0.0071; (concentration: 0.5mM) 0.9568 ± 0.0095.

On to UniProt Q9H8M2 and related entries, for which the NP40-soluble protein abundance was determined as 0.99 ± 0.03 (concentration: 0.1mM) and 0.992 ± 0.047 (concentration: 0.5mM).
